Laboratory results reported in publication PMC3904721, “The BEL1-like family of transcription factors in potato”.
No constants are given. Whether binding was seen depends on the method and setting. Binding calls can cover weak binding; strength is not graded here.

Assays:
Test in all cases: two-hybrid; Matchmaker system (Clontech), yeast strain pJ69-2A; StBELs in pACT-AD (GAL4 activation domain), KNOX proteins in pBridge (GAL4-binding domain); co-transformation, selection on -Leu/-Trp/-His/-Ade; lacZ induction quantified by β-galactosidase assay (Miller units), three replicate samples
[1] = target: NTH15 (tobacco) (UniProt O64415)
[2] = target: NTH20 (tobacco) (UniProt Q9SXV3)
[3] = target: NTH22 (tobacco) (UniProt Q9SXV4)

Row | binding [1] | binding [2] | binding [3] | Substance
1 | binds | binds | binds | StBEL35 (from UniProt M1BNG6)
2 | binds | binds | binds | StBEL32 (from UniProt M0ZWL9)
3 | binds | binds | binds | StBEL30 (from UniProt M1D1Z2)
4 | binds | binds | binds | StBEL5 (from UniProt M1A5L2)
5 | binds | – | – | StBEL33 (from UniProt M1C8Y5)
6 | – | binds | binds | StBEL13 (from UniProt M1AMS7)
7 | binds | binds | binds | StBEL34 (from UniProt M1AE49)
8 | binds | binds | binds | StBEL31 (from UniProt M0ZWL8)
